# Reference: the supplement of paper PMC10849652
# The chains behind the UniProt entries cited, without tags or fusion partners. Where a name states a change or a piece, a line headed by the entry shows the natural chain unless it says otherwise.
# UniProt Q96LJ7: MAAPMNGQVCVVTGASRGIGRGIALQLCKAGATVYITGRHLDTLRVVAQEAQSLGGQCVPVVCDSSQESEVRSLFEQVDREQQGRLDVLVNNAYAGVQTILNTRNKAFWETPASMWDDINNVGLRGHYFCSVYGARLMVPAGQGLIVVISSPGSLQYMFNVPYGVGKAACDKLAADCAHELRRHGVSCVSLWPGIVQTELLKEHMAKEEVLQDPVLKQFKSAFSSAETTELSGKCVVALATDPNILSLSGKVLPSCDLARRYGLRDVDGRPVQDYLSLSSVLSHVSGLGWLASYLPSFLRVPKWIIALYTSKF
# UniProt P00374: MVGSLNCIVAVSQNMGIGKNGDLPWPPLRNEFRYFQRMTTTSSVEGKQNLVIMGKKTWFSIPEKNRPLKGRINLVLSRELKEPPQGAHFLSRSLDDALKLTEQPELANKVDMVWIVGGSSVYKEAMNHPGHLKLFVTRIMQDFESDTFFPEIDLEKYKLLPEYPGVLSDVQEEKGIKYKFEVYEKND
# UniProt P49366: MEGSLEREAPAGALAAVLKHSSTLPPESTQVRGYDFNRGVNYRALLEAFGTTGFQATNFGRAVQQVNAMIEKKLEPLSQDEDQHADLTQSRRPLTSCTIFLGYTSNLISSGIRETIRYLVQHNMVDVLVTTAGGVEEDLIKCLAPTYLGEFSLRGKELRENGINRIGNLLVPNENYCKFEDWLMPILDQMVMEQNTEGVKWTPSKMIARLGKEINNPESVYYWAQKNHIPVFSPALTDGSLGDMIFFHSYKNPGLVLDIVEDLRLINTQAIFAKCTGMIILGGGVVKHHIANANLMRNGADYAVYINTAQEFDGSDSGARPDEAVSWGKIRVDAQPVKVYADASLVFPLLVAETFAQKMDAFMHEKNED
# UniProt Q8IX18: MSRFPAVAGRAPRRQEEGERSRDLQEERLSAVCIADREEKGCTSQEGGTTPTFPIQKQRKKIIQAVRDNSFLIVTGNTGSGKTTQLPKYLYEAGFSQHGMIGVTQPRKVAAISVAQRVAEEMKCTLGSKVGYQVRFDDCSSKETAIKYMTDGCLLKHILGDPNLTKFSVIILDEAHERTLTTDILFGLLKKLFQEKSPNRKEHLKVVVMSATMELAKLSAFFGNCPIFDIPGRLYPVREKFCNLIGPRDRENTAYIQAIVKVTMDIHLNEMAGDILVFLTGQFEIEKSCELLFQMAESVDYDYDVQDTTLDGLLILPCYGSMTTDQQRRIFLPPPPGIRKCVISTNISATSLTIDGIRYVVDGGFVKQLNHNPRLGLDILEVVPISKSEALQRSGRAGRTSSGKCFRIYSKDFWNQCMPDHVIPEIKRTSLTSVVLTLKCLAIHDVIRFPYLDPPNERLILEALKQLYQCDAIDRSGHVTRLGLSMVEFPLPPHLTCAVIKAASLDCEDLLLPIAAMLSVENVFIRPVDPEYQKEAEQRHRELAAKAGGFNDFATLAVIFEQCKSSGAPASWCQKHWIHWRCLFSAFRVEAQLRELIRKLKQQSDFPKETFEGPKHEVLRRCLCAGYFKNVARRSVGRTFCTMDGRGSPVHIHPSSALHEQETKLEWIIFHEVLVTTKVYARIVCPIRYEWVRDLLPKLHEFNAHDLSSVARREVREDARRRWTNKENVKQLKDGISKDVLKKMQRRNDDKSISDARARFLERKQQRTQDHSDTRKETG
# UniProt Q86SQ9: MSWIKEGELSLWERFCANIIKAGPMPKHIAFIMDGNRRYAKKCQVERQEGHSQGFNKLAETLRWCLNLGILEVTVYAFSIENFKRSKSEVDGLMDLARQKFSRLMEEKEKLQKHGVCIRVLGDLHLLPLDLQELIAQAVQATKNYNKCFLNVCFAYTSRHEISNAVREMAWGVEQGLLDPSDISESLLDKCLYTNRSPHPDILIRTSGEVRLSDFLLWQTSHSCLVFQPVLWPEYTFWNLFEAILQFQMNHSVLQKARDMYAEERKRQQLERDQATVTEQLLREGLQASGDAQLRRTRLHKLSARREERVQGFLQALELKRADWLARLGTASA
# UniProt Q9GZR7: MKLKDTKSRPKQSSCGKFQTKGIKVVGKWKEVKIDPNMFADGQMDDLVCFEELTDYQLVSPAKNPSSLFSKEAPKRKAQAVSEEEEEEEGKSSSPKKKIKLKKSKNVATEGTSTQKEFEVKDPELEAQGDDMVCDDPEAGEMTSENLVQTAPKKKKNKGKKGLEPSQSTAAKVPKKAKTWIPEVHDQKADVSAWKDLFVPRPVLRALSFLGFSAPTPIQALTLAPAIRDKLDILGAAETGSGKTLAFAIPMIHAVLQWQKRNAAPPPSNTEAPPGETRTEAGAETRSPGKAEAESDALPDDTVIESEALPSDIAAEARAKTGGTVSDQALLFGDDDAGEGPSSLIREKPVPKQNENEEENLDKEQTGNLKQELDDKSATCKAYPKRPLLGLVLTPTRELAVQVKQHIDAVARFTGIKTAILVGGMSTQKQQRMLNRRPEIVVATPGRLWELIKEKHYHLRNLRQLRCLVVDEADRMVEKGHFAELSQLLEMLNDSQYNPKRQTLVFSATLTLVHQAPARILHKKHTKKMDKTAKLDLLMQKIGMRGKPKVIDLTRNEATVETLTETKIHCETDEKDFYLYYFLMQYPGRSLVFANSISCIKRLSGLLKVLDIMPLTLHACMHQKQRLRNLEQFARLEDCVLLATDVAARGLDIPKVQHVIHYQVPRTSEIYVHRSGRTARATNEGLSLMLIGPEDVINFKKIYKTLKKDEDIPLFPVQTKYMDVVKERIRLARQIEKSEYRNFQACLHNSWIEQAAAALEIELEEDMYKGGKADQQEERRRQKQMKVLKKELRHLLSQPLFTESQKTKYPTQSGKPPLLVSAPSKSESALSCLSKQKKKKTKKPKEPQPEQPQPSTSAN
# UniProt P17661, whole entry, looked up: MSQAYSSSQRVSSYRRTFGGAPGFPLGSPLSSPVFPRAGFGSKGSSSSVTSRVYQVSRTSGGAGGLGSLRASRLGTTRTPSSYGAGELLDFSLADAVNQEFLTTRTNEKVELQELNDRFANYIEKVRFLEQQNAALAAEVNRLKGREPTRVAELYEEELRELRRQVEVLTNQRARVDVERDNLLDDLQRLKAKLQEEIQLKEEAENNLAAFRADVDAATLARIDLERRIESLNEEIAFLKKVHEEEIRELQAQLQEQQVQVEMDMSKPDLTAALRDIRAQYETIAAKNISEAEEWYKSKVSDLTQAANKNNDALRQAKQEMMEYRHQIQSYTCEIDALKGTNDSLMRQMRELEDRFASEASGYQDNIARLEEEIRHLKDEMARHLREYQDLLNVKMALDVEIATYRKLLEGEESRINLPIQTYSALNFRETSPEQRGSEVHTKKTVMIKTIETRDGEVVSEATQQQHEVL
# UniProt P39656: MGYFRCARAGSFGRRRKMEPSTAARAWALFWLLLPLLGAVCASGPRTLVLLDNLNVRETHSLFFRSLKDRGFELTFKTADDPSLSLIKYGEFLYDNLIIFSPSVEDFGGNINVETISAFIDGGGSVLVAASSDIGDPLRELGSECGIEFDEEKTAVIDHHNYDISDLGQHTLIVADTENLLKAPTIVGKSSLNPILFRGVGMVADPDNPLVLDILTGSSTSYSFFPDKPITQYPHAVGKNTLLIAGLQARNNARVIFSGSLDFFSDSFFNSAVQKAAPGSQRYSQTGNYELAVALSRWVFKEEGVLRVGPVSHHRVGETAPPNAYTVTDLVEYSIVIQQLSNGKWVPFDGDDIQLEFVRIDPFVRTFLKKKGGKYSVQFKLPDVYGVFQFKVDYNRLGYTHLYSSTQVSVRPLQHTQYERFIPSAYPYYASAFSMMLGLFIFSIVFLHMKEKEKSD
# UniProt Q99766: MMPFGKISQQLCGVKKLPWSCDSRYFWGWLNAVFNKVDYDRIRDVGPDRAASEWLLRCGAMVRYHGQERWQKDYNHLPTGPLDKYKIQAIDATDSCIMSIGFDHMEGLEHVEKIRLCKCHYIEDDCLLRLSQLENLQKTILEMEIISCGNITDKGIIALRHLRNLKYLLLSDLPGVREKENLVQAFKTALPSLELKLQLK
# UniProt O95865: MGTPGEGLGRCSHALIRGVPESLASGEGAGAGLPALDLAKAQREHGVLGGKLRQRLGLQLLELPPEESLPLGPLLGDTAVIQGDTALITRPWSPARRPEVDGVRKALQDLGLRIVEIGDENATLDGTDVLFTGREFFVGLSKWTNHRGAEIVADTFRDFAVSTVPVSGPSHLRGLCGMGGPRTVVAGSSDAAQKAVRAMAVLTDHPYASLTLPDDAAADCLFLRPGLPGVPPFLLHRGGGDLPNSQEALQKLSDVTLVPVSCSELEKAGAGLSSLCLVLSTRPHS
# UniProt O00148, whole entry, looked up: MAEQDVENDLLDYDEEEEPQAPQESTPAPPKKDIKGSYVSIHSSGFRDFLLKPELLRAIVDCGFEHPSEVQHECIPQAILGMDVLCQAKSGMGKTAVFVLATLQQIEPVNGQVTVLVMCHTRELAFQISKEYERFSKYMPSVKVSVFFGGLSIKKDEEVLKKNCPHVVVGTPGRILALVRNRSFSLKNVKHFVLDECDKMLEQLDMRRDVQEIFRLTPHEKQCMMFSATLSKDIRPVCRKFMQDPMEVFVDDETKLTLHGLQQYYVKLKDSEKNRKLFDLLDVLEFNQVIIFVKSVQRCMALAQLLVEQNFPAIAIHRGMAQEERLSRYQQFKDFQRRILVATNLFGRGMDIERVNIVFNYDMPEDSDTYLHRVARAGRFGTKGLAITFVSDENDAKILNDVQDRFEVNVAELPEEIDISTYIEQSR
# UniProt O43583: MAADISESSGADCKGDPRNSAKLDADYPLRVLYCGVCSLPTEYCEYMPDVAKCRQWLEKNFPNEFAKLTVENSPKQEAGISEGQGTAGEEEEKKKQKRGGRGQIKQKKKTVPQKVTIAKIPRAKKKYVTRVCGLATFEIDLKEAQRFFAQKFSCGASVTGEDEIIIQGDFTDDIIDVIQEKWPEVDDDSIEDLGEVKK
# UniProt Q9UNQ2: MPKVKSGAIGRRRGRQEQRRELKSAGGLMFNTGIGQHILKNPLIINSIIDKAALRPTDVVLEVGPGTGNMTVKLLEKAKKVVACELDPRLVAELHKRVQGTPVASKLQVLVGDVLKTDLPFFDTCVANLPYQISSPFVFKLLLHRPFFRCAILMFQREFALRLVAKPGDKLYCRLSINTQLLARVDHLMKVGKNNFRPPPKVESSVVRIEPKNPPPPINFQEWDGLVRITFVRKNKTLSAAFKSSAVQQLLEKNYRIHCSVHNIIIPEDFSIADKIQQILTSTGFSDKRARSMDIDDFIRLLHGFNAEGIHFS
# UniProt P17844: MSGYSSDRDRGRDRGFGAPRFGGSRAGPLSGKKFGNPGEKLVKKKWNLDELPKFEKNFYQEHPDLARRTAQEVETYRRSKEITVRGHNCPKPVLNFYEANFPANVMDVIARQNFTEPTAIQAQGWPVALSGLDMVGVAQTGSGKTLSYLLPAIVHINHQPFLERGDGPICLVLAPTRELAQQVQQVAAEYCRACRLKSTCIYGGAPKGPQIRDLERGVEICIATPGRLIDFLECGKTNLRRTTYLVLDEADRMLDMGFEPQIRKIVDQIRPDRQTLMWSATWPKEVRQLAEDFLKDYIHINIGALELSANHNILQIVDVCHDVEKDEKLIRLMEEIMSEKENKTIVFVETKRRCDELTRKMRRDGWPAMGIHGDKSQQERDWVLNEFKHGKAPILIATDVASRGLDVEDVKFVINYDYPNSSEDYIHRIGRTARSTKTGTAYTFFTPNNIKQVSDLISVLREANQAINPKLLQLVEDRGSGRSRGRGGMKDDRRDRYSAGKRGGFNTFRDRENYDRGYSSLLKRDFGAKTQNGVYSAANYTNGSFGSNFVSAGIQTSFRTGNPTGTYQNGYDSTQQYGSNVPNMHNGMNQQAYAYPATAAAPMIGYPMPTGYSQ
# UniProt Q92499: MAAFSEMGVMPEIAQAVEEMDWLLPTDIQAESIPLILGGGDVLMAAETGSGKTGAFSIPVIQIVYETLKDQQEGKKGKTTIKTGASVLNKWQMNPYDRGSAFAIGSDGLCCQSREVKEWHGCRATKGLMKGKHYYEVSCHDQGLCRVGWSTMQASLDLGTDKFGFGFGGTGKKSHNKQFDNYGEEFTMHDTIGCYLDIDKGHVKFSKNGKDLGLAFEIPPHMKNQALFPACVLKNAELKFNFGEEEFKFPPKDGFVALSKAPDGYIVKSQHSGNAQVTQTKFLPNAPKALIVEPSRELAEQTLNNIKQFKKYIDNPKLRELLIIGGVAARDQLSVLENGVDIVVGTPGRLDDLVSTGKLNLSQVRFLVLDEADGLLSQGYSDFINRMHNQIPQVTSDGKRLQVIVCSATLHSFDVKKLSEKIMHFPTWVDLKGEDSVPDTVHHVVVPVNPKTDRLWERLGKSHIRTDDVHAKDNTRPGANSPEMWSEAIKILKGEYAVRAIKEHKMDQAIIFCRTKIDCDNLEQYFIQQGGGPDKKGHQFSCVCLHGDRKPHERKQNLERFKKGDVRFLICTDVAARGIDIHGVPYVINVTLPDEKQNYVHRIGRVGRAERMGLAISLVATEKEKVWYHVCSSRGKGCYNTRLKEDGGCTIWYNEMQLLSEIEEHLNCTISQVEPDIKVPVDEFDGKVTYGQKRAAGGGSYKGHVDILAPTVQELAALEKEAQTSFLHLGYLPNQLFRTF
# Some of the results follow.
# Assays:
# Assay in all cases: log2 fold change, soluble protein after heating vs DMSO (PISA); higher = thermal stabilisation; K562 cells, 10 uM, 30 min; active = over 0.2 and 3.5 SD of the protein, either way, in both replicates (recomputed)
# [1] = compound: CC1=C(C=C(C=C1)NC(=O)C2=CC(=CC=C2)C(C)(C)C#N)NC3=CC4=C(C=C3)N=CN(C4=O)C
# Outline: (§1)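 Thermal stability values are relative to control samples and come from duplicates. They are expressed as log2 fold changes. For measurement, K562 cells (2×10^6 cells/mL) received 10 μM compound for 30 min, and aliquots were heated for 3 min over 48°C-58°C, pooled, and extracted at 4°C in PBS with 0.5% NP-40. Soluble protein, the supernatant after 21,000xg for 90 min, was quantified by TMTpro 16plex LC-MS/MS with equalised channel sums.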
# [2] = compound: CC1=C(C=C(C=C1)NC(=O)C2=CC(=CC=C2)N(C)C)NC(=O)C3=CC=C(C=C3)O
# Outline: as §1
# [3] = compound: CC1=CC=C(C=C1)SC2=C3C=C(SC3=CN=C2)C(=O)N
# Outline: as §1
# [4] = compound: CC1=NC(=CC=C1)C2=C(N=C(N2)C(C)(C)C)C3=CC4=NC=CN=C4C=C3
# Outline: as §1
# Nexturastat A = compound: CCCCN(Cc1ccc(C(=O)NO)cc1)C(=O)Nc1ccccc1 [Nexturastat A]
# Outline: as §1
# vemurafenib = compound: CCCS(=O)(=O)Nc1ccc(F)c(C(=O)c2c[nH]c3ncc(-c4ccc(Cl)cc4)cc23)c1F [vemurafenib]
# Outline: as §1
# [5] = compound: CCCS(=O)(=O)Nc1ccc(F)c(C(=O)c2c[nH]c3ncc(Cl)cc23)c1F
# Outline: as §1
# [6] = compound: CCCc1cc(C)[nH]c(=O)c1CNC(=O)c1cc(-c2ccnc(N3CCN(C)CC3)c2)cc2c1cnn2C(C)C
# Outline: as §1
# givinostat = compound: CCN(CC)Cc1ccc2cc(COC(=O)Nc3ccc(C(=O)NO)cc3)ccc2c1 [givinostat]
# Outline: as §1
# barasertib = compound: CCN(CCCOc1ccc2c(Nc3cc(CC(=O)Nc4cccc(F)c4)[nH]n3)ncnc2c1)CCOP(=O)(O)O [barasertib]
# Outline: as §1
Target,log2 fold change [1],log2 fold change [2],log2 fold change [3],log2 fold change [4],log2 fold change (Nexturastat A),log2 fold change (vemurafenib),log2 fold change [5],log2 fold change [6],log2 fold change (givinostat),log2 fold change (barasertib)
DHRS1 (UniProt Q96LJ7),inactive: 0.357,inactive: -0.143,inactive: -0.166,inactive: -0.202,inactive: 0.096,inactive: 0.29,inactive: -0.079,inactive: 0.088,inactive: 0.068,inactive: -0.05
DHFR (UniProt P00374),inactive: -0.069,inactive: 0.003,inactive: -0.086,inactive: -0.074,inactive: 0.232,inactive: 0.044,inactive: 0.001,inactive: 0.17,inactive: 0.162,inactive: 0.068
DIS3L (UniProt Q8TF46),inactive: -0.031,inactive: -0.181,inactive: -0.018,inactive: 0.044,inactive: 0.176,inactive: 0.021,inactive: 0.043,inactive: 0.115,inactive: 0.16,
DHPS (UniProt P49366),inactive: -0.074,inactive: 0.016,inactive: 0.034,inactive: 0.161,inactive: -0.079,inactive: 0.067,inactive: 0.008,inactive: -0.015,inactive: -0.001,inactive: 0.01
DHX40 (UniProt Q8IX18),inactive: 0.105,inactive: -0.047,inactive: 0.02,inactive: -0.027,inactive: 0.12,inactive: 0,inactive: 0.043,inactive: 0.025,inactive: 0.087,inactive: -0.002
DIAPH1 (UniProt O60610),inactive: 0.018,inactive: -0.05,inactive: 0.025,inactive: -0.049,inactive: 0.19,inactive: 0.041,inactive: 0.062,inactive: 0.08,inactive: 0.051,inactive: 0.077
DHDDS isoform 2 (UniProt Q86SQ9),inactive: -0.042,inactive: 0.01,inactive: -0.103,inactive: 0.082,inactive: -0.094,inactive: 0.024,inactive: 0.077,inactive: -0.038,inactive: 0.008,inactive: 0.1
DGCR8 (UniProt Q8WYQ5),inactive: 0.008,inactive: -0.051,inactive: -0.087,inactive: -0.183,inactive: 0.207,inactive: 0.049,inactive: 0,inactive: 0.172,inactive: 0.082,inactive: -0.224
DDX24 (UniProt Q9GZR7),inactive: -0.099,inactive: -0.116,inactive: -0.104,inactive: -0.047,inactive: 0.229,inactive: -0.12,inactive: -0.002,inactive: -0.557,,
DES (UniProt P17661),inactive: -0.281,inactive: 0.014,inactive: -0.01,inactive: -0.305,inactive: 0.286,inactive: -0.001,inactive: -0.029,inactive: 0.148,inactive: 0.108,inactive: -0.008
DGUOK (UniProt Q16854),inactive: 0.005,inactive: 0.002,inactive: -0.012,inactive: 0.021,inactive: 0.043,inactive: 0.026,inactive: -0.021,inactive: -0.028,inactive: -0.011,inactive: 0.018
DDOST (UniProt P39656),inactive: 0.03,inactive: -0.013,inactive: -0.031,inactive: 0.016,inactive: -0.01,inactive: 0.003,inactive: -0.006,inactive: -0.001,inactive: 0.006,inactive: 0.008
DDT (UniProt P30046),inactive: -0.058,inactive: 0.004,inactive: 0.014,inactive: -0.033,inactive: -0.051,inactive: -0.037,inactive: -0.018,inactive: -0.046,inactive: -0.014,inactive: 0.003
DHCR7 (UniProt Q9UBM7),inactive: -0.037,inactive: -0.028,inactive: -0.055,inactive: 0.023,inactive: 0.104,inactive: 0.011,inactive: 0.039,inactive: 0.139,active: 0.808,inactive: 0.204
DMAC2L (UniProt Q99766),inactive: -0.082,inactive: 0.029,inactive: -0.031,inactive: 0.005,inactive: 0.01,inactive: -0.046,inactive: -0.013,inactive: -0.017,inactive: 0,inactive: 0.013
DNAH11 (UniProt Q96DT5),inactive: -0.109,inactive: 0.064,inactive: -0.13,inactive: 0.044,inactive: -0.007,inactive: 0.199,inactive: -0.15,inactive: 0.17,inactive: 0.111,inactive: -0.051
DIP2B (UniProt Q9P265),inactive: 0.017,inactive: -0.005,inactive: 0.005,inactive: -0.003,inactive: -0.021,inactive: -0.022,inactive: 0.018,inactive: 0.011,inactive: 0.006,inactive: -0.011
DDX39B isoform 2 (UniProt Q13838),inactive: 0.003,inactive: -0.006,inactive: -0.006,inactive: 0.003,inactive: 0.006,inactive: 0,inactive: 0.002,inactive: -0.044,inactive: -0.034,inactive: -0.05
DDAH2 (UniProt O95865),inactive: -0.034,inactive: -0.075,inactive: -0.01,inactive: 0,inactive: 0.048,inactive: -0.097,inactive: -0.015,inactive: -0.049,inactive: -0.107,inactive: 0.042
DLG3 (UniProt Q92796),inactive: -0.105,inactive: 0.044,inactive: 0.003,inactive: 0.014,inactive: -0.173,inactive: -0.111,inactive: -0.042,inactive: -0.058,inactive: 0.161,inactive: 0.021
DDX39A (UniProt O00148),inactive: -0.018,inactive: -0.016,inactive: 0.02,inactive: 0.027,inactive: 0.015,inactive: 0.004,inactive: 0.017,inactive: 0.074,inactive: 0.076,inactive: 0.035
DENR (UniProt O43583),inactive: -0.009,inactive: -0.014,inactive: -0.042,inactive: 0.021,inactive: -0.018,inactive: -0.022,inactive: -0.143,inactive: 0.085,inactive: -0.048,inactive: 0.008
DIMT1 (UniProt Q9UNQ2),inactive: 0.013,inactive: -0.025,inactive: -0.038,inactive: -0.087,inactive: 0.216,inactive: -0.092,inactive: -0.017,inactive: 0.081,inactive: -0.007,inactive: -0.127
DLST (UniProt P36957),inactive: -0.013,inactive: 0.011,inactive: -0.027,inactive: -0.001,inactive: 0.04,inactive: -0.046,inactive: -0.052,inactive: 0.031,inactive: -0.041,inactive: -0.052
DDX23 (UniProt Q9BUQ8),inactive: 0.109,inactive: 0.035,inactive: -0.173,inactive: -0.079,inactive: 0.253,inactive: -0.064,inactive: -0.012,inactive: 0.038,inactive: 0.072,inactive: -0.089
DNAJA1 (UniProt P31689),inactive: -0.014,inactive: -0.077,inactive: -0.007,inactive: -0.005,inactive: 0.005,inactive: 0.013,inactive: 0.006,inactive: -0.018,inactive: 0.021,inactive: 0.002
DHX15 (UniProt O43143),inactive: -0.006,inactive: 0.015,inactive: 0.015,inactive: -0.002,inactive: -0.018,inactive: -0.013,inactive: -0.002,inactive: -0.013,inactive: -0.068,inactive: 0
DFFB (UniProt O76075),inactive: -0.023,inactive: -0.013,inactive: 0.013,inactive: 0.019,inactive: -0.04,inactive: 0.055,inactive: 0,inactive: -0.109,inactive: -0.059,inactive: 0.034
DDX5 (UniProt P17844),inactive: 0.136,inactive: -0.131,inactive: 0.036,inactive: 0.112,inactive: 0.033,inactive: 0.142,inactive: 0.174,inactive: 0.036,inactive: 0.178,inactive: 0.122
DDX1 (UniProt Q92499),inactive: 0.087,inactive: -0.021,inactive: -0.002,inactive: -0.034,inactive: 0.151,inactive: -0.007,inactive: 0.004,inactive: 0.059,inactive: 0.05,inactive: 0.018

# Just log2 fold change [3] and log2 fold change (barasertib) (2 entries from above):
Target | log2 fold change [3] | log2 fold change (barasertib)
DDX39B isoform 2 (UniProt Q13838) | inactive: -0.006 | inactive: -0.05
DDAH2 (UniProt O95865) | inactive: -0.01 | inactive: 0.042
